Source: PubChem BioAssay AID1508597 (Cure First, 2020)
This is a random part of the about 2,100 reagents, in one setting of the screen. 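Calls flag viability under 80% in either arm, not effects specific to rucaparib; the reference for percent is not stated.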 No sequences are given here. Not stated in the record: the 100% reference.

Screen: 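Genes whose silencing sensitises or protects ovarian cancer cells against rucaparib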 (primary screen)
System: human ovarian carcinoma lines grown from tumours: OCI-P5x (papillary serous) and OCI-C5x (clear cell)
Knock-down reagent: siRNA pool against human genes, 1.25 pmol siRNA per well
Time to read-out: 72 h or 96 h, depending on the cell culture
Conditions: rucaparib 20 µM (about IC30) or vehicle, present until read-out
Rucaparib or vehicle: Vehicle
Cell line: OCI-C5x (clear cell)
Detection: 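ATP luminescence measured at 72 or 96 h according to the culture, then normalised and expressed as percent viability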
Scale: viability, normalised: higher = more viable cells remaining
Call rule: 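Active when normalised viability falls below 80 percent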
Calls: active = viability under 80%; inactive = viability 80% or more

The first 3 records, ahead of the listing:
no.	Gene	technical replicate	viability, normalised (%)	call
1	MAD2L1	1	41.1	active
2	MAD2L1	2	42.1	active
3	MAD2L1	3	46.8	active

The list itself, repeating the preview:
no.	Gene	technical replicate	viability, normalised (%)	call
1	MAD2L1	1	41.1	active
2	MAD2L1	2	42.1	active
3	MAD2L1	3	46.8	active
4	ROCK1	1	128	inactive
5	ROCK1	2	69.8	active
6	ROCK1	3	69.3	active
7	AFF3	1	44.1	active
8	AFF3	2	51.2	active
9	AFF3	3	39.2	active
10	SMARCD2	1	28.9	active
11	SMARCD2	2	34.8	active
12	SMARCD2	3	31.5	active
13	TRPM6	1	49.4	active
14	TRPM6	2	40.5	active
15	TRPM6	3	45.9	active
16	TKFC	1	26.9	active
17	TKFC	2	25.3	active
18	TKFC	3	24.3	active
19	ARL8A	1	41.1	active
20	ARL8A	2	51.6	active
21	ARL8A	3	31.9	active
22	DDX23	1	28.2	active
23	DDX23	2	48.6	active
24	DDX23	3	36.6	active
